Source: patent publication US20230355727A1, “TREATMENT OF RETINAL DISORDERS” (Tel HaShomer Medical Research Infrastructure and Services …, priority 2020, published 2023)
At least one peptide structure holds a part that was inferred or is arguable (an end, a ring closure or a residue). Peptide text beside a SMILES is read from it. * marks the point of attachment. Tos = Cc1ccc(S(=O)(=O)*)cc1; CH2Cl = ClC*

Assays:
[1] = system: glioma; conditions: in vivo; cited from earlier work
[2] = system: diabetic rats; conditions: in vivo; cited from earlier work
[3] = biological target: T1, thrombin (Mus musculus, UniProt P19221); assay: Thrombin activity in isolated neuroretinas ex vivo (fluorogenic substrate); format: biochemical
T1 construct: Neuroretinas were removed from mice at selected time points and were placed in a black 96-well microplate; from tissue; host or cells: isolated neuroretina of C57BL/6J (WT) and RPE65/rd12 mice

[4] = system: thrombin; conditions: in vitro screen, as described in WO 2015/173802; cited from earlier work

Cc1ccc(S(=O)(=O)N[C@H](C(=O)N[C@@H](CC(C)C)C(=O)N[C@@H](CC(=O)O)C(=O)N2CCC[C@H]2C(=O)N[C@@H](CCCNC(=N)N)C(=O)CCl)[C@@H](C)O)cc1 [PARIN5, ^37TLDPR^41-CMK] (Tos-TLDPR-CH2Cl)
Glioma edema volume growth [1]: significant inhibition of glioma edema volume growth | Nerve function in diabetic neuropathy [2]: protection of nerve function | Effect on thrombin activity in neuroretinas (in words) ([3]; 100 nM, WT (basal) and RPE65/rd12 neuroretinas, FIG. 16): significantly inhibited both basal and decreased thrombin activity | Thrombin activity in neuroretinas isolated from RPE65/rd12 mice in the presence of PARIN5 ([3]; RPE65/rd12 (retinitis pigmentosa model) neuroretina halves, 100 nM, without PARIN5 0.06 ± 0.028 mU/ml, p=0.0178): 0.003 ± 0.002 mU/ml | Thrombin activity in neuroretinas isolated from WT mice in the presence of PARIN5 ([3]; WT C57BL/6J neuroretina halves, 100 nM in PBS, without PARIN5 0.12 ± 0.013 mU/ml, p<0.0001): 0.007 ± 0.005 mU/ml | Inhibition of thrombin [4]: significant inhibition of thrombin
